Experimental findings from the supplement of paper PMC3545927 are described below.

Chains of the proteins cited; added tags and fusions are not shown.
furin, P09958, UniProt P09958, whole entry: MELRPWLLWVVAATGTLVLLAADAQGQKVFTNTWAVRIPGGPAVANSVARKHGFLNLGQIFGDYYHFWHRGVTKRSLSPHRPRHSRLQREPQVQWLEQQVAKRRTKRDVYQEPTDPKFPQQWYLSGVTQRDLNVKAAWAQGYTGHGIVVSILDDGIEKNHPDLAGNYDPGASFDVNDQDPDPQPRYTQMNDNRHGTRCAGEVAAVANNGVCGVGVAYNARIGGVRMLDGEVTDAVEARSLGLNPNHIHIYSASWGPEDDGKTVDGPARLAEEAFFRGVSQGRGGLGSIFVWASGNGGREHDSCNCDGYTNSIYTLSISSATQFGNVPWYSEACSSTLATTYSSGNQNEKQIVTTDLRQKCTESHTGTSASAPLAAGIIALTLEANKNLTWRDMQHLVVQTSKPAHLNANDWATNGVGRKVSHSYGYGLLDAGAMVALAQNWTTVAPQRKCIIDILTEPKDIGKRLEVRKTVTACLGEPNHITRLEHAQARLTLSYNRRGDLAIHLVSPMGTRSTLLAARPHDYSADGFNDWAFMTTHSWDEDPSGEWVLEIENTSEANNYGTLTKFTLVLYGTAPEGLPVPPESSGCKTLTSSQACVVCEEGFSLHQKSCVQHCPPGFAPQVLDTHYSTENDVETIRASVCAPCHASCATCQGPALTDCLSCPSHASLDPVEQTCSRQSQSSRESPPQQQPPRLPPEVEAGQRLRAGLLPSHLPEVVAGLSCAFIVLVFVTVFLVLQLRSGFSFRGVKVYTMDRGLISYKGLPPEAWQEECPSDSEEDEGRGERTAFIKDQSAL

The entries are a selection whose mix differs from that of the whole data set.

In this test the target is furin, P09958. Briefly: furin cleavage Z-score vs untreated control; higher = more cleavage, active = 3.5 or more, inactive = 1 or less, 8 variable residues between constant flanks. A digest of the protocol: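 To give the cleavage Z-score, log read counts were set against furin-free reactions, lowess-adjusted and scaled by median absolute deviation. These counts came from PCR adapter-tagged, sequenced DNA released when purified furin cut 8-mer peptides fused to a cDNA oligonucleotide and held on magnetic beads by their N-terminus. Digests were 0.01 ml, 1:10 enzyme:substrate, in 50 mM HEPES pH 7.5 with CaCl2 and NaCl, for 7.5, 15 or 30 min.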

Consider CARHHRFPRAAGNASASA [FS-1063], for which the “furin cleavage Z-score” value is active: 12.2 (7.5 min), active: 10.7 (15 min) and active: 8.91 (30 min).
The like results for CARMKREITTAGNASASA [FS-2047] were, in that order, active: 9.07, active: 9.89 and active: 7.88.
For CAKGSRWKRPAGNASASA [FS-545] the same measures were 2.91, 1.45 and 1.53.
Consider CAYRFVAPGEAGNASASA [HC910], for which the “furin cleavage Z-score” value by setting is: (7.5 min) inactive: -0.691; (15 min) inactive: -0.942; (30 min) inactive: -0.913.
The like results for CARKRRVRKDAGNASASA [FS-1560] were, in that order, active: 8.86, active: 7.9 and active: 6.61.
For CAEQEVPCHRAGNASASA [HC2462] the same measures were 1.83, 2.22 and 1.53.
For CAARRRAARGAGNASASA [FS-401] the same measures were 3.34, 1.74 and 2.51.
As to CAYSFRKVRDAGNASASA [FS-1506], the “furin cleavage Z-score” value worked out at 1.62 (7.5 min), 1.48 (15 min) and 2.13 (30 min).
For CATQRREQRDAGNASASA [FS-882] the same measures were 1.33, 2.13 and 3.41.
The like results for CARQKREIDVAGNASASA [FS-3035] were, in that order, active: 10.8, active: 12.7 and active: 11.5.
Regarding CARHYRNVFHAGNASASA [FS-2557], where the note is “30 min”, the “furin cleavage Z-score” value is active: 5.01.
Regarding CAHPQRSKKAAGNASASA [FS-248], the “furin cleavage Z-score” value runs as follows: (7.5 min) inactive: -0.0765; (15 min) inactive: 0.432; (30 min) 1.4.
For CARARSVRARAGNASASA [HC1622] the same measures were 2.03, 1.81 and 3.26.
The like results for CAEPEVPCHRAGNASASA [HC2459] were, in that order, 1.5, 1.07 and 1.58.
The like results for CAGKSRNKRQAGNASASA [FS-243] were, in that order, active: 10.4, active: 10.6 and active: 10.1.
Take CARVRRQIHAAGNASASA [FS-2319]: the “furin cleavage Z-score” value is active: 8.32 (7.5 min), active: 8.68 (15 min) and active: 7.57 (30 min).
With CAMEEASQHLAGNASASA [HC1], the “furin cleavage Z-score” value worked out at 2.06 (7.5 min), 1.67 (15 min) and 1.31 (30 min).
The like results for CARRKRKKKEAGNASASA [FS-712] were, in that order, 1.66, 1.49 and 2.32.
For CARIGRTARSAGNASASA [FS-559] the same measures were active: 14.2, active: 12.8 and active: 11.2.
The like results for CAMEECSPHLAGNASASA [HC1739] were, in that order, 2.54, 2.72 and 2.17.
Turning to CAKSARSVRAAGNASASA [FS-1673], the “furin cleavage Z-score” value is, setting by setting: (7.5 min) active: 6.74; (15 min) active: 6.73; (30 min) active: 7.
With CARRLRALRSAGNASASA [FS-374], the “furin cleavage Z-score” value reads like this: (7.5 min) 3.3; (15 min) 1.7; (30 min) 3.47.
For CAHQWISSECAGNASASA [HC1141] the same measures were inactive: -0.592, inactive: -1.1 and inactive: 0.453.
The like results for CAVDNRAVRSAGNASASA [FS-732] were, in that order, 1.7, 2.07 and 1.92.
For CAQDCTMLVCAGNASASA [HC1525] the same measures were 2.4, 1.18 and 1.13.
